Assay results taken from PMC8348221, “Characterization of the Intramolecular Interactions and Regulatory Mechanisms of the Scaffold Protein Tks4” (International Journal of Molecular Sciences, 2021).
No constants are given. Whether binding was seen depends on the method and setting.

Experiments:
Experiment in all cases: other fluorescence titration; intrinsic tryptophan fluorescence emission spectra of the single SH3_(1), SH3_(2) or SH3_(3) domains with PRRL; both purified
[1] = biological target: T1, Tks4 SH3_(1) domain (residues 155–210) (human) (UniProt A1X283)
T1 sequence: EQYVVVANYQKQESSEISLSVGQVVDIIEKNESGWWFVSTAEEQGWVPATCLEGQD

[2] = biological target: T2, Tks4 SH3_(2) domain (residues 224–279) (human) (UniProt A1X283)
T2 sequence: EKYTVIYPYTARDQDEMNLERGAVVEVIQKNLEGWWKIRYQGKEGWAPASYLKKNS

[3] = biological target: T3, Tks4 SH3_(3) domain (residues 371–426) (human) (UniProt A1X283)
T3 sequence (chain, NT-647 amine-reactive dye (in the MST only)): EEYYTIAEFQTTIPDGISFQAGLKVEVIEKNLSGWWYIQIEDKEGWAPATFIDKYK

- binding [1]: no binding
- binding [2]: no binding
- binding [3]: no binding
B1: Tks4 PRRL fragment (residues 333–370) (domain or fragment, human)
chain: GSHMGDAKQRSPKMRQRPPPRRDMTIPRGLNLPKPPIPPQVE
notes: four N-terminal residues that are cloning artifacts; human Tks4 (SH3PXD2B), residues 333-370: proline-rich region with the PTAM (PPPRR) and the PKPPIPP motif; also called wild type PRRL; not shown: His-tag, N-terminal, cleaved
